In the supplement of paper PMC12067093, “Discovery and optimisation of a covalent ligand for TRIM25 and its application to targeted protein ubiquitination” (Chemical Science, 2025):
Some of the results follow.

Chains of the proteins cited; added tags and fusions are not shown. Lines headed by an entry give the natural chain unless they say otherwise; changes in a name come on top.
UniProt P23381: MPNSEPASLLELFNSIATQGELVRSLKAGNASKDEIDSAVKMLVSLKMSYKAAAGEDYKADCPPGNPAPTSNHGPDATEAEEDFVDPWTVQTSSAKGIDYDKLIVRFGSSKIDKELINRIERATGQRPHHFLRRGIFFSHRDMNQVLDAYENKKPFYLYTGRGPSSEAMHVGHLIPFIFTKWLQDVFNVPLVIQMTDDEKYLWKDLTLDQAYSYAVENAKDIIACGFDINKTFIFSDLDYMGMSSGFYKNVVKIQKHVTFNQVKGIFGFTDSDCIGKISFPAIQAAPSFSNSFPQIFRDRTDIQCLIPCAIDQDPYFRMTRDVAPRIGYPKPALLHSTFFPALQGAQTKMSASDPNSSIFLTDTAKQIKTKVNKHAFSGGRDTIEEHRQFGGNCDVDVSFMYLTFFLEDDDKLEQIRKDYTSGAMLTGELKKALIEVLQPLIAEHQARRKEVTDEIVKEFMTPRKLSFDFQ
UniProt Q9H6Y2: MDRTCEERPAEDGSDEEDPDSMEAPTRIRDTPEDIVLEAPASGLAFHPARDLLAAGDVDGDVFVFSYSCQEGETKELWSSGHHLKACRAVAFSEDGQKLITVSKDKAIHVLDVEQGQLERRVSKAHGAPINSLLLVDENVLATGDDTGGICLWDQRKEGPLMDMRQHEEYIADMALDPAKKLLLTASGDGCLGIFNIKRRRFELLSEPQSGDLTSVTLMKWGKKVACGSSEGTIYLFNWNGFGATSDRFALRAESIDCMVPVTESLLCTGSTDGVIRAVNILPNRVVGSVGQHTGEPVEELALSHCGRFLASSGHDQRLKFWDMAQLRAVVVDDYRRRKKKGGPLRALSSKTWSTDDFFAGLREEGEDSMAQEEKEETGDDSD
UniProt Q9NNW5: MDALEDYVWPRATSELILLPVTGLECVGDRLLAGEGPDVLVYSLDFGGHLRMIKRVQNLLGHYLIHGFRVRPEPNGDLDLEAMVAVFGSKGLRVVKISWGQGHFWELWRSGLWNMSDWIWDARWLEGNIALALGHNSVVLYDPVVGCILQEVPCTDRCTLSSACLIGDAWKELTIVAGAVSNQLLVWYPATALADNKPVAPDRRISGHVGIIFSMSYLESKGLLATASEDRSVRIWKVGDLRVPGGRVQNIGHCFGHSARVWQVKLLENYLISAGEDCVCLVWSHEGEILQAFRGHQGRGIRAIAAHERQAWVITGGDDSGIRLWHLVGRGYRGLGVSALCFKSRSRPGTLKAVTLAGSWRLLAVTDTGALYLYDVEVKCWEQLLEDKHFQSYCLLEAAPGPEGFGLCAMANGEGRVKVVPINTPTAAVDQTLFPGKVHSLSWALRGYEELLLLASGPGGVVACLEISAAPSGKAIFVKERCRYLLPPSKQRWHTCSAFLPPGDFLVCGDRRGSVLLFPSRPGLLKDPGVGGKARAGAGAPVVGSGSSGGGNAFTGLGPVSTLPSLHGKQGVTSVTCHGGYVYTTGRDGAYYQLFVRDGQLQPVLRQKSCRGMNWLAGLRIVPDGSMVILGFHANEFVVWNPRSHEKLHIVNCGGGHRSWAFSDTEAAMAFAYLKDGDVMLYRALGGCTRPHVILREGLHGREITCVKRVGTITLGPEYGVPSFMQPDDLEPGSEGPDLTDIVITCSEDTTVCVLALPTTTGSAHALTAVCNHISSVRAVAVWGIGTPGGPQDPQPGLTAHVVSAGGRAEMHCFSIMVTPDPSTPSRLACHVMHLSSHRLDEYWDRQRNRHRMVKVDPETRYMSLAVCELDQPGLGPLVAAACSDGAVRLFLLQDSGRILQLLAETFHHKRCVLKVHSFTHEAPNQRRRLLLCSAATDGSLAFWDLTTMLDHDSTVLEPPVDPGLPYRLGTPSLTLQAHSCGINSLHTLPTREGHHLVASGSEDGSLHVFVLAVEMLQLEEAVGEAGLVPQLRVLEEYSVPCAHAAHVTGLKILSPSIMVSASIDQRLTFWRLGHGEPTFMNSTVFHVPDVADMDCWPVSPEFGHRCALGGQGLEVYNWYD
UniProt Q12768: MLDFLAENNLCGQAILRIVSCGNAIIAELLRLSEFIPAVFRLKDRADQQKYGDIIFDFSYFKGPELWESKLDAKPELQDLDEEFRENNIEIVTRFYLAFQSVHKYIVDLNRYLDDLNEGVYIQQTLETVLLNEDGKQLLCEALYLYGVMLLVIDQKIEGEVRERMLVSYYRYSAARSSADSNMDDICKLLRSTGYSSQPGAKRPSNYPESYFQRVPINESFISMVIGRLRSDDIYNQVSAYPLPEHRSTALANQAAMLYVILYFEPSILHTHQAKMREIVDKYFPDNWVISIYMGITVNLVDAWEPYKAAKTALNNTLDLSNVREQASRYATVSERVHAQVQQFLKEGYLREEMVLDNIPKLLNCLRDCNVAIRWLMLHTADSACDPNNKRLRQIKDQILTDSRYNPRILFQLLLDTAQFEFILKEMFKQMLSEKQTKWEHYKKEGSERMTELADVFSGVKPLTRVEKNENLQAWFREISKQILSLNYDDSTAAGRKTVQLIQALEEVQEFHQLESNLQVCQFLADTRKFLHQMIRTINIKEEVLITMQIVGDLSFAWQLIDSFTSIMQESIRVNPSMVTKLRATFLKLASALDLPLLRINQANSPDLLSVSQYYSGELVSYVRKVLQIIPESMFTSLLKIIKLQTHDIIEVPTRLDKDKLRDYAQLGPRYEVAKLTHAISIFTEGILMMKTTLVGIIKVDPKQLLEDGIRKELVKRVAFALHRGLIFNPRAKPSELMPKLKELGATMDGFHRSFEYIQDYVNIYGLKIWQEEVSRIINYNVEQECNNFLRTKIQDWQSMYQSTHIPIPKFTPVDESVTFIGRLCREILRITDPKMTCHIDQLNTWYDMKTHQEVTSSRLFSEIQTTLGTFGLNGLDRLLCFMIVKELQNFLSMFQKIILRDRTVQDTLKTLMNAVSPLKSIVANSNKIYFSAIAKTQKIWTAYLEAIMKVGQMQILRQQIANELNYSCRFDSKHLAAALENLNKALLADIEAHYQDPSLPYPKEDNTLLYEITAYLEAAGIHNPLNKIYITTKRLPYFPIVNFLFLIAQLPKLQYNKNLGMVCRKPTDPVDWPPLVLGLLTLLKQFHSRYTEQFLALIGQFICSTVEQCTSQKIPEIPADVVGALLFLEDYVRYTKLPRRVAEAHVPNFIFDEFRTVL
UniProt Q6ZS81: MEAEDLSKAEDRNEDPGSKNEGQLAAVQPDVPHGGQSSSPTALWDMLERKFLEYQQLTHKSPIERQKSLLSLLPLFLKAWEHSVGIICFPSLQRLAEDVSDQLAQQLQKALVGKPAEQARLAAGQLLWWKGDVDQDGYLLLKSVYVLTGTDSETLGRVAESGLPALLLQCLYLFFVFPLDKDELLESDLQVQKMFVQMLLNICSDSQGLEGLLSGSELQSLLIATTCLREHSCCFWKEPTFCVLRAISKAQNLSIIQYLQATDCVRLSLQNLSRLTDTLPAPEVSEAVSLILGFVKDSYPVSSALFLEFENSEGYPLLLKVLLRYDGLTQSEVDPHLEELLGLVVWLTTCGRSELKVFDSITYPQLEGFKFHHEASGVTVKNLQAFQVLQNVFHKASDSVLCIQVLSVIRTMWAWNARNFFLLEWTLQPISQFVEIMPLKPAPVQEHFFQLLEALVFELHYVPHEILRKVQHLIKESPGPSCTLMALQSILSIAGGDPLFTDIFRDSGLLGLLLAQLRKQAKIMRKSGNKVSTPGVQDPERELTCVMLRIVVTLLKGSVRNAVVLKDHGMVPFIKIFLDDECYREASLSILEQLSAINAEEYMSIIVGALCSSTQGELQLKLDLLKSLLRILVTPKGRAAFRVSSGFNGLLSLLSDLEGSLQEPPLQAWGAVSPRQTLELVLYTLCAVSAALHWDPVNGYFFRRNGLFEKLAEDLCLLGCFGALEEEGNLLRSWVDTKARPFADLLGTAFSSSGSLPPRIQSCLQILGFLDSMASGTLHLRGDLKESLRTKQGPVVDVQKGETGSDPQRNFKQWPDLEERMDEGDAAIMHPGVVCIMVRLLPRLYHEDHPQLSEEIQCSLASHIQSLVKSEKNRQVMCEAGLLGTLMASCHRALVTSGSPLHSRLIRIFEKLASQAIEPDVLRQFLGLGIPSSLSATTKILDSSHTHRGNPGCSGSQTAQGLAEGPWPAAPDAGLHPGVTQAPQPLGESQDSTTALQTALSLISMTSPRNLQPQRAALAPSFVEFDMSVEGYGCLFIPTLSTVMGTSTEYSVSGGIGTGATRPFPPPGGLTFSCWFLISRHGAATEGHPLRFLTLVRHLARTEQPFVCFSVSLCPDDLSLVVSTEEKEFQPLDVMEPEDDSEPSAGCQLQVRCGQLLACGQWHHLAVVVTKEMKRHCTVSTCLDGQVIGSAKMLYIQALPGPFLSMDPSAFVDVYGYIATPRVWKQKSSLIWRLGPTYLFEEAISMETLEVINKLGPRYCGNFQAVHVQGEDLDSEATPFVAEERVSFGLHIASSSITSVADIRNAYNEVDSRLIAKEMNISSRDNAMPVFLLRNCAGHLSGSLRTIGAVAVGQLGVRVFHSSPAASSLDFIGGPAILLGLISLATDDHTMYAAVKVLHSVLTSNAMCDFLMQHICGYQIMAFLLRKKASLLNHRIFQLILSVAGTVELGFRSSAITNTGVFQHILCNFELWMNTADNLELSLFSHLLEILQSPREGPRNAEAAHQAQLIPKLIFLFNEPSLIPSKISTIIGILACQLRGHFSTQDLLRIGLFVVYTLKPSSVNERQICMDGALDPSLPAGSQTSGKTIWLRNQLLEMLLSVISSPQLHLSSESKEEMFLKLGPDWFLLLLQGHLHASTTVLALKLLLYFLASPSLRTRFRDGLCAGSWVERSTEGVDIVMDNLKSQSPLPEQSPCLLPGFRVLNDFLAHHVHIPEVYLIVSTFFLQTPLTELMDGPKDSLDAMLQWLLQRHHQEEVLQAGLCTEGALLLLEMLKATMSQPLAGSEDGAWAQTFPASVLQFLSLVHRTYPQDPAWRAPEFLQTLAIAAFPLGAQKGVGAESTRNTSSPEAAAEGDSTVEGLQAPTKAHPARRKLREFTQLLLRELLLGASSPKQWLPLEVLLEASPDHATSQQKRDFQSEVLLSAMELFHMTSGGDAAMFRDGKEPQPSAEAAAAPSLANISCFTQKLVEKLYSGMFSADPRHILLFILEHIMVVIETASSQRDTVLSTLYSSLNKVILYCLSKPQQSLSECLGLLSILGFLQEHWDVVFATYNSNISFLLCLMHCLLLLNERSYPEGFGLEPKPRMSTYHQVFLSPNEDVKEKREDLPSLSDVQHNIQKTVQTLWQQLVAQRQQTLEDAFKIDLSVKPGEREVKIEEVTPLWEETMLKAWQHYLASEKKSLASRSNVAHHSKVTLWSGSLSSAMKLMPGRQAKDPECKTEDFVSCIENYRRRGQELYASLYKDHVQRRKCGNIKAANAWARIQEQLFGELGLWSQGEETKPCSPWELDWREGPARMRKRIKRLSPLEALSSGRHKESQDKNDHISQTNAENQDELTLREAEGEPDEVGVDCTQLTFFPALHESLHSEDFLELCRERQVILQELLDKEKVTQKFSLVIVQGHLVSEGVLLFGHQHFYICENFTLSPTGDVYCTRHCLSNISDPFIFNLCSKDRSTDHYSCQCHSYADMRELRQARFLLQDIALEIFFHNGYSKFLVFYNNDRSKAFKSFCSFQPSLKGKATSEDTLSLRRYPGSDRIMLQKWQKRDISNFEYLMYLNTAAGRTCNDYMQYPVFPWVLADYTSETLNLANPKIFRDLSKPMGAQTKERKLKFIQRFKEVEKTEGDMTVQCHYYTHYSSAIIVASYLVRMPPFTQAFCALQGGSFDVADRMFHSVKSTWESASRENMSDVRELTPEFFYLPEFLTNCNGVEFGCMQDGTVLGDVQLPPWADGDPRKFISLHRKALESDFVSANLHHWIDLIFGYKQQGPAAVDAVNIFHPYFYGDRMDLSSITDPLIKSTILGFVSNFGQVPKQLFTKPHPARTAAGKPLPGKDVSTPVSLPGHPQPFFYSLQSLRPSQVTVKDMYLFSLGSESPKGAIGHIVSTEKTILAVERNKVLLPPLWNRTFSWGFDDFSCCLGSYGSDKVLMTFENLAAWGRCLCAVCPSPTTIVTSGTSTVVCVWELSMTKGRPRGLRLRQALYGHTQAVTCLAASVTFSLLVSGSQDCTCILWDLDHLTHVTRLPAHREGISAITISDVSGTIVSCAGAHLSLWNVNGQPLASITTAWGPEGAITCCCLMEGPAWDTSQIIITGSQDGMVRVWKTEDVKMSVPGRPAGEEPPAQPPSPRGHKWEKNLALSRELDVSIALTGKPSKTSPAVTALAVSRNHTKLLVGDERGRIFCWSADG
UniProt Q96HA8: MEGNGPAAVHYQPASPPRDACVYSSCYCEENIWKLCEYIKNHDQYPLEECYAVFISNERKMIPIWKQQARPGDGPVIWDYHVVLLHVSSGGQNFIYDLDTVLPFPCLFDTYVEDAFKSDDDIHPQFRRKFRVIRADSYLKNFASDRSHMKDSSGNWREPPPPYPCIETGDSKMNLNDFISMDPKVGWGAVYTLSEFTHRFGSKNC

Compound: CC1Cc2ccccc2N1C(=O)C1CCCN(C1)C(=O)CCl (mixture of isomers) [TRIM25 ligand 11 (diastereomer mixture)]
Experiment: probe-labelled cysteine peptide fold change vs DMSO (competition) (log2 fold change); higher = less target engagement (more negative = stronger competition)
Settings: 10 µM; THP-1; incubation time: 4 h
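Note: competitive chemoproteomic profiling in live THP-1 cells with an iodoacetamide desthiobiotin (IA-DTB) probe, comparing probe-labelled peptide intensities in compound-treated cells against DMSO-treated controls.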

Point of comparison: “XIAP_P98170_213_NWEPCDR (UniProt P98170)”, “probe-labelled cysteine peptide fold change” value -0.102. Against it:
- WARS_P23381_305+309_TDIQCLIPCAIDQDPYFR (UniProt P23381) — higher, -0.101
- XIAP_P98170_474_QCAEAVDK (UniProt P98170) — higher, -0.0754
- WDR77_Q9BQA1_26_EWNLPPNAPACMER (UniProt Q9BQA1) — lower, -0.108
- WARS_P23381_225_DIIACGFDINK (UniProt P23381) — higher, 0.13
- WDR11_Q9BZH6_411_NSSSGVSPLYSPVSFCGIPVGVLQNK (UniProt Q9BZH6) — higher, -0.0944
- WDR36_Q8NI36_311_TDGHPVMAAGSPCGHIGLWDLEDKK (UniProt Q8NI36) — higher, 0.0484
- WDR7_Q9Y4E6_109_LACTHTGIQFYQFSVGNQR (UniProt Q9Y4E6) — higher, 0.0367
- XAB2_Q9HCS7_587_DLFEQALDGCPPK (UniProt Q9HCS7) — higher, 0.132
- WDR75_Q8IWA0_217_NNFTCVACHPTEDCIASGHMDGK (UniProt Q8IWA0) — higher, 0.0121
- WDR55_Q9H6Y2_268_AESIDCMVPVTESLLCTGSTDGVIR (UniProt Q9H6Y2) — higher, 0.00997
- WDR6_Q9NNW5_813_AEMHCFSIMVTPDPSTPSR (UniProt Q9NNW5) — higher, 0.0198
- WDFY1_Q8IWB7_290_CEQPFFWNIK (UniProt Q8IWB7) — higher, 0.022
- WDR82_Q6UXN9_195_TCEWTGLK (UniProt Q6UXN9) — higher, 0.0195
- WDR6_Q9NNW5_26_ATSELILLPVTGLECVGDR (UniProt Q9NNW5) — higher, -0.04
- WDR91_A4D1P6_351_ELFSTTTSQCAEK (UniProt A4D1P6) — higher, 0.0204
- WDR59_Q6PJI9_677_SLGELYILNVNDIQETCQK (UniProt Q6PJI9) — higher, 0.0212
- WDR3_Q9UNX4_296+307_ILACHGTDSVLELFCILSK (UniProt Q9UNX4) — higher, -0.0433
- XPNPEP1_Q9NQW7_308_CCMPYTPICIAK (UniProt Q9NQW7) — higher, -0.0512
- WASHC5_Q12768_21_IVSCGNAIIAELLR (UniProt Q12768) — higher, 0.0148
- WDR5_P61964_205_IWDTASGQCLK (UniProt P61964) — higher, -0.0683
- WDR43_Q15061_307_DGQVHLFEHILNGYCK (UniProt Q15061) — higher, 0.152
- WDFY4_Q6ZS81_835_QWPDLEERMDEGDAAIMHPGVVCIMVR (UniProt Q6ZS81) — lower, -0.279
- WDR6_Q9NNW5_577_QGVTSVTCHGGYVYTTGR (UniProt Q9NNW5) — higher, -0.0117

Same assay, conditions: 50 µM; THP-1; incubation time: 4 h

Point of comparison: “XIAP_P98170_12_TCVPADINKEEEFVEEFNR (UniProt P98170)”, “probe-labelled cysteine peptide fold change” value -0.22. Against it:
- WDR25_Q64LD2_429_FTCPSLALHPR (UniProt Q64LD2) — higher, 0.0795
- XPC_Q01831_514_MCSDGEK (UniProt Q01831) — higher, -0.0661
- WDR81_Q562E7_1715_SVFFVGQLEAPQHVVSCDGAVHVWDPFTGK (UniProt Q562E7) — higher, 0.0532
- WDFY3_Q8IZQ1_2094_SQGLSLDAVYHCLNR (UniProt Q8IZQ1) — higher, 0.108
- WDFY1_Q8IWB7_189_LEQNTCSVITTLK (UniProt Q8IWB7) — higher, 0.551
- WDR41_Q9HAD4_99_ITAIITFPSLESCEEK (UniProt Q9HAD4) — higher, 0.0289
- WRN_Q14191_1070_ANTESQSLILQANEELCPK (UniProt Q14191) — higher, -0.0363
- WDHD1_O75717_773_MLALSCK (UniProt O75717) — higher, 0.00645
- WNK1_Q9H4A3_1135_VVECQLETHNRK (UniProt Q9H4A3) — higher, 0.179
- WDFY4_Q6ZS81_582_IFLDDECYR (UniProt Q6ZS81) — higher, 0.0279
- WDR43_Q15061_291_LAVVCR (UniProt Q15061) — higher, 0.0308
- WDR1_O75083_507_GPVTDVAYSHDGAFLAVCDASK (UniProt O75083) — higher, 0.0234
- WDYHV1_Q96HA8_165_DSSGNWREPPPPYPCIETGDSK (UniProt Q96HA8) — higher, -0.191
- WDR11_Q9BZH6_107_IIVWDVAAGVAQCEIQEHAK (UniProt Q9BZH6) — higher, 0.0832
- WBP4_O75554_13_KFCDYCK (UniProt O75554) — lower, -0.3
- WARS_P23381_305+309_TDIQCLIPCAIDQDPYFR (UniProt P23381) — higher, -0.151
- XIAP_P98170_474_QCAEAVDK (UniProt P98170) — higher, 0.139
- WDR77_Q9BQA1_26_EWNLPPNAPACMER (UniProt Q9BQA1) — higher, -0.0635
- WARS_P23381_225_DIIACGFDINK (UniProt P23381) — higher, 0.231
- WDR11_Q9BZH6_411_NSSSGVSPLYSPVSFCGIPVGVLQNK (UniProt Q9BZH6) — higher, -0.0348
- WDR36_Q8NI36_311_TDGHPVMAAGSPCGHIGLWDLEDKK (UniProt Q8NI36) — higher, -0.132
- WDR7_Q9Y4E6_109_LACTHTGIQFYQFSVGNQR (UniProt Q9Y4E6) — higher, 0.174
- XAB2_Q9HCS7_587_DLFEQALDGCPPK (UniProt Q9HCS7) — higher, 0.0552
- WDR75_Q8IWA0_217_NNFTCVACHPTEDCIASGHMDGK (UniProt Q8IWA0) — higher, -0.205
- WDR55_Q9H6Y2_268_AESIDCMVPVTESLLCTGSTDGVIR (UniProt Q9H6Y2) — higher, 0.341
- WDR6_Q9NNW5_813_AEMHCFSIMVTPDPSTPSR (UniProt Q9NNW5) — lower, -0.241
- WDFY1_Q8IWB7_290_CEQPFFWNIK (UniProt Q8IWB7) — higher, -0.00435
- WDR82_Q6UXN9_195_TCEWTGLK (UniProt Q6UXN9) — higher, 0.313
- WDR6_Q9NNW5_26_ATSELILLPVTGLECVGDR (UniProt Q9NNW5) — higher, 0.0348
- WDR91_A4D1P6_351_ELFSTTTSQCAEK (UniProt A4D1P6) — higher, -0.136
- WDR59_Q6PJI9_677_SLGELYILNVNDIQETCQK (UniProt Q6PJI9) — higher, 0.159
- WDR3_Q9UNX4_296+307_ILACHGTDSVLELFCILSK (UniProt Q9UNX4) — lower, -0.38
- XPNPEP1_Q9NQW7_308_CCMPYTPICIAK (UniProt Q9NQW7) — higher, -0.0661
- WASHC5_Q12768_21_IVSCGNAIIAELLR (UniProt Q12768) — higher, 0.243
- WDR5_P61964_205_IWDTASGQCLK (UniProt P61964) — higher, 0.0111
- WDR43_Q15061_307_DGQVHLFEHILNGYCK (UniProt Q15061) — higher, 0.108
- WDFY4_Q6ZS81_835_QWPDLEERMDEGDAAIMHPGVVCIMVR (UniProt Q6ZS81) — lower, -0.333
- WDR6_Q9NNW5_577_QGVTSVTCHGGYVYTTGR (UniProt Q9NNW5) — higher, -0.0183
- XIAP_P98170_213_NWEPCDR (UniProt P98170) — higher, -0.171
